In the supplement of paper PMC8426693:
The list shows a part of the results.

Legend:
Assay in all cases: NMR binding call after quantification (hit when 2 of 3 NMR criteria are met) (binary (1 = binding, 0 = not binding)); higher = binding
Conditions in all cases: RNA concentration 10 µM; fragment concentration 200 µM; 293 K
SARS-CoV-2 5_SL7 RNA = tested on: SARS-CoV-2 5_SL7 RNA
SARS-CoV-2 5_SL8 RNA = tested on: SARS-CoV-2 5_SL8 RNA
[1] = tested on: SARS-CoV-2 attenuator hairpin (att HP) RNA
[2] = tested on: SARS-CoV-2 frameshift pseudoknot (PK) RNA

Measured: NMR binding call

CCOC(=O)c1cc(-c2ccc(C)cc2)no1
0: SARS-CoV-2 5_SL7 RNA | SARS-CoV-2 5_SL8 RNA | [1] | [2]

COc1ccc(CN2CCOCC2)cc1OC
0: SARS-CoV-2 5_SL7 RNA | SARS-CoV-2 5_SL8 RNA | [1] | [2]

CC(C)C(=O)Nc1nnn(C)n1
0: SARS-CoV-2 5_SL7 RNA | SARS-CoV-2 5_SL8 RNA | [1] | [2]

CCC(=O)Nc1nc(C)cs1
0: SARS-CoV-2 5_SL7 RNA | SARS-CoV-2 5_SL8 RNA | [1] | [2]

Cc1ccsc1CNC(C)(C)CO
0: SARS-CoV-2 5_SL7 RNA | SARS-CoV-2 5_SL8 RNA | [1] | [2]

CCNc1ncccc1C
0: SARS-CoV-2 5_SL7 RNA | SARS-CoV-2 5_SL8 RNA | [1] | [2]

Cn1nnc(NC(=O)c2ccc(F)cc2)n1
0: SARS-CoV-2 5_SL7 RNA | SARS-CoV-2 5_SL8 RNA | [1] | [2]

A draw from above in order of molar mass, smallest number first.
CC(C)C(=O)Nc1nnn(C)n1
0: SARS-CoV-2 5_SL7 RNA | SARS-CoV-2 5_SL8 RNA | [1] | [2]

CCC(=O)Nc1nc(C)cs1
0: SARS-CoV-2 5_SL7 RNA | SARS-CoV-2 5_SL8 RNA | [1] | [2]

Cc1ccsc1CNC(C)(C)CO
0: SARS-CoV-2 5_SL7 RNA | SARS-CoV-2 5_SL8 RNA | [1] | [2]

Following part:

Cc1[nH]cnc1CN1CCc2ccccc2C1
0: SARS-CoV-2 5_SL7 RNA | SARS-CoV-2 5_SL8 RNA | [1] | [2]

CC(=O)N1CCCC(C(N)=O)C1 (stereo not drawn)
0: SARS-CoV-2 5_SL7 RNA | SARS-CoV-2 5_SL8 RNA | [1] | [2]

CN1CCN(C(=O)c2ccc(F)c(F)c2)CC1
0: SARS-CoV-2 5_SL7 RNA | SARS-CoV-2 5_SL8 RNA | [1] | [2]

CCC(CC)C(=O)Nc1ccccc1O
0: SARS-CoV-2 5_SL7 RNA | SARS-CoV-2 5_SL8 RNA | [1] | [2]

Cc1ccc(NC(=O)C2CCCO2)nc1 (stereo not drawn)
0: SARS-CoV-2 5_SL7 RNA | SARS-CoV-2 5_SL8 RNA | [1] | [2]

CS(=O)(=O)N1CCN(Cc2ccco2)CC1.O=C(O)C(=O)O
0: SARS-CoV-2 5_SL7 RNA | SARS-CoV-2 5_SL8 RNA | [1] | [2]

Cc1cc(C)nc(Nc2ccccc2)n1
0: SARS-CoV-2 5_SL7 RNA | SARS-CoV-2 5_SL8 RNA | [1] | [2]

CCCC(=O)Nc1cccnc1Cl
0: SARS-CoV-2 5_SL7 RNA | SARS-CoV-2 5_SL8 RNA | [1] | [2]

COCC(=O)Nc1ccc(O)cc1
0: SARS-CoV-2 5_SL7 RNA | SARS-CoV-2 5_SL8 RNA | [1] | [2]

COCC(=O)NCc1ccc(C)cc1
0: SARS-CoV-2 5_SL7 RNA | SARS-CoV-2 5_SL8 RNA | [1] | [2]
